The values below come from PMC10810035.

Amino acid sequences for entries named in this document (tags omitted).
UniProt P46379: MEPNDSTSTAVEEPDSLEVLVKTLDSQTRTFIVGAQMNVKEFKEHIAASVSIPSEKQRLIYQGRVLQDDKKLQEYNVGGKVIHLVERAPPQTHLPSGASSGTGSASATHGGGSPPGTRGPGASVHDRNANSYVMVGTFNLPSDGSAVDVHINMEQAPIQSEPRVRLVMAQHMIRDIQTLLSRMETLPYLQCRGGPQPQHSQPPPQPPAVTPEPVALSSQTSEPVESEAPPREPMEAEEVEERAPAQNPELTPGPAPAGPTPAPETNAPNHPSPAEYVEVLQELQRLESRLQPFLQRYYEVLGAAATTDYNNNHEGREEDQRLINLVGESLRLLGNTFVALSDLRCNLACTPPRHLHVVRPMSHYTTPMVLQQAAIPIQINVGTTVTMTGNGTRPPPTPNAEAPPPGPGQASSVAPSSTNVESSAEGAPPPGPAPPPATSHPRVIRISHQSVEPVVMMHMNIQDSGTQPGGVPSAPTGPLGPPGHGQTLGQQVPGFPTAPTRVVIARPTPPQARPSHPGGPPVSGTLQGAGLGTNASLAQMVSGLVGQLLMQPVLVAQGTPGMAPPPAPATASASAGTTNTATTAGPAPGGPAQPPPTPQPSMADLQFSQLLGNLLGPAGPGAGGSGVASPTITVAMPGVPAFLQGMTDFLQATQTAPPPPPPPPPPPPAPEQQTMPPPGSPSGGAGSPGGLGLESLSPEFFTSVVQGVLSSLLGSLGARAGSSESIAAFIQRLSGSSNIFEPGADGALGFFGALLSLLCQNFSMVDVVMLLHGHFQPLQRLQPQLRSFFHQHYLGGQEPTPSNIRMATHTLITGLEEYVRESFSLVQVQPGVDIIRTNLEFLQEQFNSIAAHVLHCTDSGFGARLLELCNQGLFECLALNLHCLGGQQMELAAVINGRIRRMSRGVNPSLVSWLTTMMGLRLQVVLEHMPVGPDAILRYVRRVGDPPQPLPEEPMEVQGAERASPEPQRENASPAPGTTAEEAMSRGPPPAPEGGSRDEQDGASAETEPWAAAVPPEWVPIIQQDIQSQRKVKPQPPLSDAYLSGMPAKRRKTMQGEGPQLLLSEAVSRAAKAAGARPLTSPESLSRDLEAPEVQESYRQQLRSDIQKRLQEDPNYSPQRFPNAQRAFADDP

The target of test [1] is T1, Flag-DERL2 (derlin 2) (human (cDNA amplified from QBC939 cells)) (UniProt Q9GZP9).
T1 sequence: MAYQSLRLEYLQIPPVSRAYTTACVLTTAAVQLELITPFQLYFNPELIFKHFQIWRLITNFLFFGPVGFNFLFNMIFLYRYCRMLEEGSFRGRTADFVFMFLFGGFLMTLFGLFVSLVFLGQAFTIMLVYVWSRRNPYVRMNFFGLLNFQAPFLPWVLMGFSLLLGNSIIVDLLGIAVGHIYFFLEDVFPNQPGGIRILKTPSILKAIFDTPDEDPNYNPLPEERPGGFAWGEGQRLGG
The test is described as follows: co-IP; 293T cells co-transfected with Flag-DERL2 and/or HA-BAG6 vectors, 48 h; lysate immunoprecipitated with anti-HA beads (Fig. 11B) or anti-Flag beads (Fig. 11C); western blot. A general note: In western blotting, separated proteins are transferred to a membrane and probed.

For test [2], the target named is HA-BAG6 (BAG cochaperone 6) (human) (UniProt P46379). The description is as above.

These are yes or no findings as the source states them, for the method shown. Binding seen in cells or lysates may run through a third protein. Some results given as binding are weak or reduced against the parent protein; the word gives no strength. Sequences can lack the tags named with a protein.

Consider “HA-BAG6 (BAG cochaperone 6) (from UniProt P46379 1-1132)”, for which, in test [1], the binding result is “binds”.

B1: Flag-DERL2 (derlin 2) (protein, UniProt Q9GZP9 1-239)
chain: MAYQSLRLEYLQIPPVSRAYTTACVLTTAAVQLELITPFQLYFNPELIFKHFQIWRLITNFLFFGPVGFNFLFNMIFLYRYCRMLEEGSFRGRTADFVFMFLFGGFLMTLFGLFVSLVFLGQAFTIMLVYVWSRRNPYVRMNFFGLLNFQAPFLPWVLMGFSLLLGNSIIVDLLGIAVGHIYFFLEDVFPNQPGGIRILKTPSILKAIFDTPDEDPNYNPLPEERPGGFAWGEGQRLGG
For the molecule B1, the binding result in test [2] was “binds”.
